Laboratory results from publication PMC6610666.
Results are given in words; binding and its absence hold for the method and conditions named. In cells and extracts the contact can be indirect. Some binding calls cover weakened binding; strength is not graded here.

Sequences of proteins named here, by UniProt entry; tags and fusion partners are left off.
UniProt Q16254: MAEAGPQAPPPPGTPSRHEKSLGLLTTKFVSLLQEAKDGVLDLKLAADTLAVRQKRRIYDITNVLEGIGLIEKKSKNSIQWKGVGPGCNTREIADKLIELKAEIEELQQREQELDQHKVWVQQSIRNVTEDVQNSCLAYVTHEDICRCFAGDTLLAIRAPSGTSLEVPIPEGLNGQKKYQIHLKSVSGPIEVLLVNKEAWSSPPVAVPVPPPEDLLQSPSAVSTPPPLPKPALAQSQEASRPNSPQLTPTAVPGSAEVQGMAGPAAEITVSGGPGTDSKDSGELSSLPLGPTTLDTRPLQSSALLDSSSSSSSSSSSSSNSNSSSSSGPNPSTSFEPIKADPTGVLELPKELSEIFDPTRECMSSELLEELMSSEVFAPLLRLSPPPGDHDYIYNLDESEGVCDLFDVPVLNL
UniProt Q14186: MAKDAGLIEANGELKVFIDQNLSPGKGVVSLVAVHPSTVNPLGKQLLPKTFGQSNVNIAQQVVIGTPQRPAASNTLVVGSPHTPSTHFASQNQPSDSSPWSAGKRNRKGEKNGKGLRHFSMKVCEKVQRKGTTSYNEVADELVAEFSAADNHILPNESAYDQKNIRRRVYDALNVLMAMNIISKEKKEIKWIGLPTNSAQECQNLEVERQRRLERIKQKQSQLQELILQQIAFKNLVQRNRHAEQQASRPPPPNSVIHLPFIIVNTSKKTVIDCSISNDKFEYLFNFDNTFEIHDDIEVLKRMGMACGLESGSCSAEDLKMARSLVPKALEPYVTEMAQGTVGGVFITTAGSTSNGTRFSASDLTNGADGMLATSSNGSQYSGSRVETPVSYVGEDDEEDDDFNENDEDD
UniProt Q5TKA1: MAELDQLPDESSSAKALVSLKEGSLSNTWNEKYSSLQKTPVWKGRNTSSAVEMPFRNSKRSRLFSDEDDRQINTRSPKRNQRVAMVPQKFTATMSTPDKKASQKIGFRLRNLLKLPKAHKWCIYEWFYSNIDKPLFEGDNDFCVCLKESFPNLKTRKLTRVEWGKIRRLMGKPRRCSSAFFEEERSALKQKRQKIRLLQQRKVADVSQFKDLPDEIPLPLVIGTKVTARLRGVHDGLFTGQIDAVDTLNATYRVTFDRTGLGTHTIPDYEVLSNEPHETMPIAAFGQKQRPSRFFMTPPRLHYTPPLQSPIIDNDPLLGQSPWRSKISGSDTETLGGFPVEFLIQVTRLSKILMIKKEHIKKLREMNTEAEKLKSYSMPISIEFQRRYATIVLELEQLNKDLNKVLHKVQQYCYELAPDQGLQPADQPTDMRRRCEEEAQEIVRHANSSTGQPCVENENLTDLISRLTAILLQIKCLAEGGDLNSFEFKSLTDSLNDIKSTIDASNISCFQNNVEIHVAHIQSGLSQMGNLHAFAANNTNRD
UniProt Q6MZP7: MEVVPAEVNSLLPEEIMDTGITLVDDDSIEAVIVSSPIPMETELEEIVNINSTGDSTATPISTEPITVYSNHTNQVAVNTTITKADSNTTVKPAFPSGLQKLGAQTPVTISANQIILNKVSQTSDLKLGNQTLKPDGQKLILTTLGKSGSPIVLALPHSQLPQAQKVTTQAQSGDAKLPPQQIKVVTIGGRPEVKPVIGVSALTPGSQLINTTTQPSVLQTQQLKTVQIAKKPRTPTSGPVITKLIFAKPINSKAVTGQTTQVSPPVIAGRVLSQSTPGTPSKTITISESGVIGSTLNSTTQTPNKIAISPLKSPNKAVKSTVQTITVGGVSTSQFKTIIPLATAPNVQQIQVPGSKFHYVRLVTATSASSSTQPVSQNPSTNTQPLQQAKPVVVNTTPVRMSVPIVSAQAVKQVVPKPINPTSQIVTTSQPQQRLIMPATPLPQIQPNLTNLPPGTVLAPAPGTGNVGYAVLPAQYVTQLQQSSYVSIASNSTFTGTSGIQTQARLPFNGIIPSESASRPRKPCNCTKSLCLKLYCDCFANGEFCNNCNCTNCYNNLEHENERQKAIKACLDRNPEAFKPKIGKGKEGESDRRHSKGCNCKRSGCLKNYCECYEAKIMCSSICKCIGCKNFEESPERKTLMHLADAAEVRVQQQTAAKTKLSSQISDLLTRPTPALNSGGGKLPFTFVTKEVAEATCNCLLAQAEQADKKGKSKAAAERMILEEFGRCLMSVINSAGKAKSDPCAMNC

Each substance was assayed against LAP-tagged human E2F4 (human) (UniProt Q16254) (assay: co-IP; co-immunoprecipitation of GFP-E2F4 followed by immunoassay in human RPE cells).

binding, binds:
DP-1 (human RPE cells) (from UniProt Q14186 1-410)
LIN9 (human RPE cells) (from UniProt Q5TKA1 1-542)
LIN54 (human RPE cells) (from UniProt Q6MZP7 1-749)
